Experimental data taken from PubChem BioAssay AID2685 (National Center for Advancing Translational Sciences (NCATS), 2010).
Some of the results follow. These are further read-outs of the screen, such as a control signal, another cell line or another target. No call is given for them. The list favours compounds with an active or inconclusive main result. The note in brackets gives the kind of curve behind each potency; many fits are weak.

Test: qHTS Assay for Lipid Storage Modulators in Drosophila S3 Cells;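 for cell number change: cells counted by Cell Tracker Red CMTPX staining in the red channel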
Conditions: BODIPY lipid droplet fluorescence, 18-24 h; for cell number change: measured here: cell count max response, cells fed with added oleic acid
In short: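 Drosophila S3 cells loaded with oleic acid (400 uM, as added) and compounds at several concentrations; lipid droplets imaged by 488-nm laser-scanning cytometry, 500–530 nm intensity and object ratio to cell channel. Percent activity normalized to 20 uM Triacsin C.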

[1] = measured here: cell number channel AC50, cells fed with added oleic acid
[2] = measured here: lipid fluorescence (Fed channel) AC50, cells fed with added oleic acid

Compound | cell number change [%] | AC50 [1] | AC50 [2]
Cc1nnc(SCC(=O)c2c[nH]c3ccccc23)n1C1CC1 | -31.2 | 20600 nM [falling, single point] | 23100 nM [falling, single point]
CCOc1cc(CNC2CCCC2)cc(Cl)c1OCc1ccc(F)cc1 | -92.4 | 29100 nM [falling, single point] | 291 nM [falling, partial curve, poor fit]
Cc1ccc(C2=NS(=O)(=O)N(C)C(C(=O)NC3CCCCC3)=C2)cc1 | 12.4 |  | 
O=C(O)CCCC(=O)Nc1ccccc1C(=O)O | -6.19 |  | 3660 nM [falling, full curve]
O=C(COc1ccc(Br)cc1)Nc1cc(S(=O)(=O)N2CCCCC2)ccc1N1CCCCC1 | 3.42 |  | 259 nM [rising, full curve]
O=C(CNS(=O)(=O)c1ccccc1)N/N=C/c1ccncc1 | 0.919 |  | 
COc1ccc2cc3cc(C(=O)N4CC(C)CC(C)C4)oc3nc2c1 (centres undefined) | 28.3 | 51.7 nM [rising, full curve, poor fit] | 20600 nM [rising, partial curve]
CN(C)c1nc(N(C)C)nc(N2CC(=O)N(c3ccccc3)C2=N)n1 | -11.4 |  | 
CCc1cc2c(NCc3ccccc3)nc(C)nc2s1 | 3.72 |  | 3260 nM [falling, single point]
COC(=O)c1ccc(/C=N/NS(=O)(=O)c2cc(C)ccc2C)cc1 | 58.4 | 18400 nM [rising, single point] | 461 nM [falling, single point]
COc1ccccc1/C=C/C=N/N1CCN(Cc2ccc(Cl)cc2)CC1 | -5.79 |  | 
CCC(=O)Nc1ccc(S(=O)(=O)Nc2c(NC)c3ccccc3oc2=O)cc1 |  |  | 7310 nM [falling, partial curve]
Cc1cc(C(=O)Cn2nnc3ccccc3c2=O)c(C)n1-c1ccccc1F |  | 326 nM [rising, full curve, poor fit] | 517 nM [rising, full curve]
C=CCn1c(O)c(N=NC(=O)CNC(=O)c2ccco2)c2ccccc21 | 35.5 | 1460 nM [rising, partial curve] | 1640 nM [rising, partial curve]
CCn1c(CNC(C)=O)nnc1SCC(=O)c1ccc(Br)cc1 | -43 | 18400 nM [falling, partial curve, poor fit] | 10300 nM [falling, partial curve]
Cc1ccc(N=CNc2ccc(C)cc2C)c(C)c1 | 14.8 |  | 5170 nM [rising, single point]
COc1ccc(Cn2c(CCC(=O)Nc3ccc(C)cc3)nc3cccnc32)cc1 | -33 | 164 nM [rising, partial curve] | 461 nM [rising, partial curve]
COc1ccc2c3c(cccc13)OC2=O | 3.78 |  | 
O=C(O)CCCCCN1C(=O)C(O)=C(C(=O)/C=C/c2ccccc2)C1c1ccc2c(c1)OCO2 (centres undefined) | -27.1 | 2310 nM [falling, full curve, poor fit] | 
COC(=O)c1ccc2c(=O)[nH]c(CCl)nc2c1 | -40.5 | 29100 nM [falling, single point] | 

Compound | cell number change [%] | AC50 [1] | AC50 [2]
O=C(O)C(c1ccccc1)N1C(=O)/C(=C\c2ccc(-c3cccc(Cl)c3)o2)SC1=S (centres undefined) | -19.9 |  | 580 nM [falling, full curve, poor fit]
CCN1C(=O)[C@H]2[C@@H](c3ccc(C)cc3)N3C(=O)N(c4ccc(OC)cc4)C(=O)[C@@]3(CC)[C@H]2C1=O | -24.9 |  | 5.17 nM [falling, full curve, poor fit]
Cc1cc(OCCNCCO)cc(C)c1Cl | 15.8 |  | 29100 nM [rising, single point]
O=C(O)c1ccc(CSc2nc3ccc(N4C(=O)C5C6C=CC(C6)C5C4=O)cc3s2)cc1 (centres undefined) |  |  | 23100 nM [falling, single point]
Fc1ccc(CNc2ncccn2)cc1 | -17.5 | 5.17 nM [falling, full curve, poor fit] | 8200 nM [falling, partial curve]
C=CCn1c(=N)c(C(=O)NCCCOC)cc2c(=O)n3cc(C)ccc3nc21 | -13.5 |  | 
Cc1cccc(NC(=O)CN2CCN(C(=O)CNC(=O)Cc3cccc4ccccc34)CC2)c1C | 1.24 |  | 1840 nM [falling, partial curve, poor fit]
O=C(NCCN1C(=O)S/C(=C\c2ccc(Cl)cc2Cl)C1=O)C1=COCCO1 |  |  | 18400 nM [falling, single point]
C=CCN1C(=O)C(Cc2ccc(OCC)cc2)SC1=Nc1ccc(C(=O)O)cc1 (centres undefined) | 15.1 | 820 nM [falling, full curve] | 1160 nM [falling, single point]
CN1CCN(CC(O)COc2ccc(C(=O)O)cc2)CC1 (centres undefined) |  | 731 nM [rising, full curve, poor fit] | 6510 nM [rising, single point]
COC(=O)C(NC(C)=O)(Nc1ccc(C)cn1)C(F)(F)F (centres undefined) | -2.91 | 517 nM [falling, full curve] | 461 nM [falling, full curve]
COC(=O)c1ccc(CN2C(=O)C(C)N(C(=O)c3c(F)cccc3F)c3ccccc32)cc1 (centres undefined) |  |  | 29100 nM [rising, single point]
CCc1ccc(OCCCC(=O)NCc2ccco2)cc1 | 1.37 |  | 1640 nM [rising, single point]
Cc1cccc(N=C2NC(=O)/C(=C/c3cccnc3)S2)c1 | 28 |  | 651 nM [falling, single point]
CN(CC(CC(=O)Nc1nncs1)c1ccccc1)S(=O)(=O)c1ccc(Br)cc1 (centres undefined) | 50.4 | 4110 nM [rising, partial curve] | 
Cc1ccc(S(=O)(=O)NNC(=O)c2ccc(O)cc2)cc1 | -9.31 | 1640 nM [rising, partial curve, poor fit] | 1300 nM [rising, full curve, poor fit]
O=C(O)CCNC(=S)Nc1cccc(F)c1 | -36.1 | 820 nM [falling, full curve] | 651 nM [falling, full curve]
Fc1cccc(Cl)c1CNn1cn[nH]c1=S | 1.5 |  | 
CCOC(=O)CSc1nnc2c3ccccc3n(CC)c2n1 | 23 |  | 29100 nM [falling, single point]
O=C(Nc1cccnc1)c1ccc(F)c(S(=O)(=O)N2CCOCC2)c1 | 4.05 |  | 2910 nM [falling, single point]

Compound | cell number change [%] | AC50 [1] | AC50 [2]
COc1ccc(N2CCN(Cc3cc(=O)c(OCC(=O)Nc4ccccc4)co3)CC2)cc1 | 2.55 |  | 411 nM [falling, single point]
O=C(Nc1ccc2c(c1)OCCO2)C1CCN(S(=O)(=O)c2ccc(Br)s2)CC1 | 56.4 | 16400 nM [rising, single point] | 18400 nM [rising, partial curve]
Cc1ccc(N(CC(=O)NC(C)C)C(=O)CCC(=O)Nc2nccs2)c(C)c1 | 6.61 |  | 13000 nM [rising, partial curve, poor fit]
Cc1ccc(O)c(C(=O)CC(=O)c2ccc(C(C)(C)C)cc2)c1 | -8.03 |  | 16400 nM [falling, single point]
CC(C(=O)N1CC2(C)CC1CC(C)(C)C2)N1C(=O)c2ccccc2C1=O (centres undefined) | -46.7 | 7310 nM [falling, partial curve] | 6510 nM [falling, partial curve]
O=P(O)(O)c1ccccc1OCCOCCOc1ccccc1P(=O)(O)O |  | 6510 nM [falling, single point] | 
Cc1c(C)c2cc(Cl)c(OCC(=O)N3CCN(c4ccc(F)cc4)CC3)cc2oc1=O |  |  | 1840 nM [rising, full curve]
COc1ccc(/C=N/NC(=O)Nc2cccc3nsnc23)c(OC)c1 |  |  | 1640 nM [rising, partial curve]
CCS(=O)(=O)N1Cc2ccccc2CC1C(=O)N(C)CC(=O)Nc1ccc(OC)cc1 (centres undefined) | 26.4 |  | 2590 nM [rising, partial curve]
O=C(/C=C/c1ccco1)NC(=S)Nc1ccccc1Br | 6.82 |  | 
CC(=O)Oc1ccc(N2C(=O)C3C4C=CC(C5CC45)C3C2=O)cc1[N+](=O)[O-] (centres undefined) | -3.62 |  | 4.61 nM [falling, full curve, poor fit]
Cc1cc(C)nc(-n2ncc3c2CC(c2cccc(Cl)c2)CC3=O)n1 (centres undefined) |  | 820 nM [rising, full curve] | 366 nM [rising, full curve]
CCCN(CCC)CC(O)COc1ccc2c(c1)OCO2 (centres undefined) | 11.8 | 411 nM [falling, single point] | 
Cc1ccc(NC(=S)N=Nc2c(O)n(C)c3ccc(S(=O)(=O)N4CCOCC4)cc23)cc1 | -12.6 |  | 6510 nM [falling, partial curve]
CC(=O)C1=C(NC(=O)c2ccc(F)cc2)CC2C1C2(C)C (centres undefined) | -19.6 |  | 259 nM [falling, full curve]
COc1cc2[nH]c(-c3cccc(F)c3)cc(=O)c2cc1OC | -19.8 |  | 4.61 nM [falling, full curve, poor fit]
Cc1cc(NC(=O)c2ccc(Cn3cc([N+](=O)[O-])cn3)o2)no1 | -11.3 |  | 29100 nM [rising, single point]
Cc1ccc(S(=O)(=O)N[C@@H](C)C(=O)N2CCC(C(=O)N[C@@H](Cc3ccccc3)C(=O)O)CC2)cc1 | -24.2 |  | 
